Experimental data: PubChem BioAssay AID652243 (Drosophila RNAi Screening Center, 2013)

Assay: 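Fly regulators of androgen-dependent reporter output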 (primary screen)
System: Drosophila S2R+ cells
Reagent: long dsRNA against Drosophila genes
Duration: 72 h (48 h, then 24 h hormone)
Treatment: synthetic androgen R1881 at 10 nM for 24 h
Read-out: 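Per-well raw luminescence of the androgen-driven firefly reporter and of the Renilla control, two replicates each, without normalisation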
Direction: firefly reporter light: higher = more light from androgen-responsive reporter; Renilla control light: higher = more constitutive control signal (cell number, transfection)
Hit rule: 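Hit when the log firefly-to-Renilla ratio dropped or increased by a fixed fold versus the mean of GFP or LacZ controls across duplicate plates; lowering cut given as 1.5 and as 3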
Meaning of the calls: active = hit: reporter lowered or raised; inactive = no hit
The deposit covers about 24,000 reagents; below is an unselected part of those with a known target gene and a result. Over the whole deposit, 246 (1%) were called active. 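Plates not normalised; calls are printed but the firefly/Renilla ratio behind them is not deposited; fold cut for lowering reported inconsistently.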 Raw values are not corrected between plates. The numbers tell different reagents against one gene apart. Not given: the amount of reagent.

PAN3 #1 gave firefly reporter light, replicate 1 = 9.64e5; firefly reporter light, replicate 2 = 1.03e6; Renilla control light, replicate 1 = 2.04e6; Renilla control light, replicate 2 = 1.49e6; inactive.
PAN3 #2 scored firefly reporter light, replicate 1 = 6.74e5; firefly reporter light, replicate 2 = 6.81e5; Renilla control light, replicate 1 = 9.81e5; Renilla control light, replicate 2 = 1.07e6; inactive.
With knock-down of CG8010 #1, the screen gave firefly reporter light, replicate 1 = 91673; firefly reporter light, replicate 2 = 92303; Renilla control light, replicate 1 = 6.77e5; Renilla control light, replicate 2 = 8.44e5; inactive.
CG8010 #2 gave firefly reporter light, replicate 1 = 1.91e5; firefly reporter light, replicate 2 = 2.33e5; Renilla control light, replicate 1 = 3.49e5; Renilla control light, replicate 2 = 4.53e5; inactive.
CG13154 gave firefly reporter light, replicate 1 = 2.15e5; firefly reporter light, replicate 2 = 1.44e5; Renilla control light, replicate 1 = 1.27e6; Renilla control light, replicate 2 = 1.12e6; inactive.
After knock-down of trbl #1, the screen gave firefly reporter light, replicate 1 = 2.32e5; firefly reporter light, replicate 2 = 2.03e5; Renilla control light, replicate 1 = 2.77e6; Renilla control light, replicate 2 = 2.01e6; inactive.
Silencing of trbl #2 gave: inactive.
Against trbl #3, the entry reads inactive.
Knock-down of CG11099 resulted in: firefly reporter light, replicate 1 = 1.37e5; firefly reporter light, replicate 2 = 1.36e5; Renilla control light, replicate 1 = 1.48e6; Renilla control light, replicate 2 = 1.51e6; inactive.
For CG15812 the deposit lists firefly reporter light, replicate 1 = 1.45e5; firefly reporter light, replicate 2 = 1.17e5; Renilla control light, replicate 1 = 1.16e6; Renilla control light, replicate 2 = 1.09e6; inactive.
osy #1 showed firefly reporter light, replicate 1 = 1.97e5; firefly reporter light, replicate 2 = 1.66e5; Renilla control light, replicate 1 = 2.20e6; Renilla control light, replicate 2 = 1.83e6; inactive.
With knock-down of osy #2 the results were firefly reporter light, replicate 1 = 2.58e5; firefly reporter light, replicate 2 = 2.37e5; Renilla control light, replicate 1 = 3.42e6; Renilla control light, replicate 2 = 3.45e6; inactive.
For osy #3 the deposit lists firefly reporter light, replicate 1 = 26497; firefly reporter light, replicate 2 = 39359; Renilla control light, replicate 1 = 3.08e5; Renilla control light, replicate 2 = 3.29e5; inactive.
With knock-down of CG13771, the record shows firefly reporter light, replicate 1 = 1.39e5; firefly reporter light, replicate 2 = 1.76e5; Renilla control light, replicate 1 = 1.41e6; Renilla control light, replicate 2 = 1.49e6; inactive.

Copied from the listing (2 entries):
trbl #3 | Call: inactive
CG11099 | firefly reporter light, replicate 1: 1.37e5; firefly reporter light, replicate 2: 1.36e5; Renilla control light, replicate 1: 1.48e6; Renilla control light, replicate 2: 1.51e6; Call: inactive
